# Results taken from paper PMC10810786.
# These are yes or no findings as the source states them, for the method shown. A result given as binding can be weak or reduced; the word gives no strength.
# Assays:
# [1] = molecular target: recombinant TbEIF4E6 (GST tag removed) (Trypanosoma brucei); assay: crystal structure; complex at 12 mg/mL in 20 mM Tris-HCl, 150 mM NaCl, 2 mM DTT, pH 8.0, preincubated with cap-4; hanging drop at 18 °C; 1.90 Å; both purified
# [2] = molecular target: recombinant TbEIF4E6 (GST tag removed) (Trypanosoma brucei); assay: nanoDSF (thermal unfolding); purified protein and purified complex in 20 mM Tris-HCl, 150 mM NaCl, 2 mM DTT, pH 8.0; linear ramp from 20 to 80 °C; with and without cap-4; both purified
binder,measurement,setting,value
SSYPEDCVYEIAEFTRLQNTKCLPPKGILQFATDLWKE [TbEIF4G5_79-116 peptide],binding,[1],binds
same,binding,[2],binds
